Assay results: US11180459B2, “Bacterial efflux pump inhibitors” (RUTGERS, THE STATE UNIVERSITY OF NEW JERSEY, priority 2017, dated 2021)
The name of at least one read-out is uncertain.

Test system: Escherichia coli ATCC 25922
Experiment: Standard EPI assay: clarithromycin MIC with EPI
Type: cell-based
Conditions: clarithromycin as antibiotic; E. coli ATCC 25922; EPI at 24
Procedure: MIC assays were conducted in accordance with Clinical and Laboratory Standards Institute (CLSI) guidelines for broth microdilution.
The EPI assay for the purposes of these studies represents a MIC assay in which the MIC of the antibiotic against the bacteria is tested in the presence of an experimental efflux pump inhibitor (EPI). The highest concentration of the EPI present in the assay typically is ½ of the intrinsic MIC of the compound. If the intrinsic MIC of the EPI is greater than 100 μg/mL, the EPI assay was tested with 50 μg/mL. Using serial dilutions of the EPI, its enhancement of antibiotic activity was then evaluated. The relative EPI activity was decided by comparing the MIC of the antibiotic in the presence of the EPI compound with the intrinsic MIC of the antibiotic alone. For the evaluation of the efficacy of an EPI against bacteria that were pre-exposed to an antibiotic, the inoculum of bacteria that used was developed from a bacterial culture isolated as a single colony following exposure at ½ the MIIC of the antibiotic (so as to induce efflux pump expression), was to be used in combination with the EPI.
In our standard EPI assay, the MIC of the test antibiotic is determined in the absence and presence of sub-inhibitory concentrations of the EPI. Initially, the sub-inhibitory concentration used was ½×MIC of the EPI. […]

Cl.Cl.NC[C@H](N)CNC(=O)c1nc2ccc(-c3ccc(F)cc3)cc2[nH]1 [Example 13, (S)-3-(5-(4-fluorophenyl)-1H-benzo[d]imidazole-2-carboxamido) propane-1,2-diaminium Dihydrochloride]
Enhanced Activity in E. coli (fold enhancement of antibiotic activity / EPI concentration): 32×/24
